These results are taken from paper PMC10994814, “Enzymatic activity of cGAS in the presence of three types of DNAs: limited cGAS stimulation by single-stranded HIV-1 SL2 DNA”.

Amino acid sequences for entries named in this document (tags omitted).
UniProt Q8N884, whole entry: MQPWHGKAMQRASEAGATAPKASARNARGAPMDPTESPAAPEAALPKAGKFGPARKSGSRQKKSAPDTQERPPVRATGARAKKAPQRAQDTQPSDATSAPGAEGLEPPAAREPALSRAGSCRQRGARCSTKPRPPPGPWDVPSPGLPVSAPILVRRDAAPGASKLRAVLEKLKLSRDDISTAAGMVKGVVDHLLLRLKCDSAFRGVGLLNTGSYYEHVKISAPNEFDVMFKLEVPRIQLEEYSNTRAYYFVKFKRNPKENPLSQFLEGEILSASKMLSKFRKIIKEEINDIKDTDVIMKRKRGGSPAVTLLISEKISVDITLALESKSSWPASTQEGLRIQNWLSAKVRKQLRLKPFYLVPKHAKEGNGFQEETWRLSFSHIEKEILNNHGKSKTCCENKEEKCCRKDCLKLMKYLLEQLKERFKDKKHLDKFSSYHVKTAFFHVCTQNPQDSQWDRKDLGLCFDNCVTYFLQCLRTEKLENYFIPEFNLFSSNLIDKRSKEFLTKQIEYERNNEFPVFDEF

Construct, isoform or probe ends are uncertain for at least one entry. The comparison behind a weaker result is the experiment's own reference, which may not be listed here. At least one verdict rests on a figure or table, not on a statement of the authors.

The first data set deals with human cGAS (Homo sapiens) (UniProt Q8N884). Nature of the data set: EMSA. The note with it: 1 uM DNA, 0-5 uM cGAS, EMSA: 1 uM DNA, 20 mM Tris-HCl pH 8.0 (4 C), 200 mM NaCl, on ice 30 min, 8% native PAGE in 25 mM Tris-HCl pH 8.5, 190 mM glycine, ethidium bromide stain, recombinant protein, residues 1-522. On the technique in general: In EMSA bound probe runs differently from free probe, usually more slowly.
In the case of “GAACTCCAGCAGGACCATTGGGG / CAATGGTCCTGCTGGAGTTCGGG [3'3'-G3 Y-form DNA]”, the binding result was “binds more weakly”.

As to “GAACTCCAGCAGGACCATTGGGG / GGGCAATGGTCCTGCTGGAGTTC [3'5'-G3 Y-form DNA]”, the binding result is “binds more weakly”. Turning to “GGGGAACTCCAGCAGGACCATTG / CAATGGTCCTGCTGGAGTTCGGG [5'3'-G3 Y-form DNA]”, the binding result was “binds more weakly”. Regarding “GGGGAACTCCAGCAGGACCATTG / GGGCAATGGTCCTGCTGGAGTTC [5'5'-G3 Y-form DNA]”, the binding result is “binds more weakly”.

The same data set, now with this note: 1 uM DNA, 3 uM cGAS; EMSA: 1 uM DNA, 0-5 uM cGAS, 20 mM Tris-HCl pH 8.0 (4 C), 200 mM NaCl, on ice 30 min; 8% native PAGE in 25 mM Tris-HCl pH 8.5, 190 mM glycine; ethidium bromide stain; recombinant protein; residues 1-522.
Take “CCCGAACTCCAGCAGGACCATTGCCC / CCCCAATGGTCCTGCTGGAGTTCCCC [C3 Y-form DNA]”: the binding signal (% unbound DNA at cGAS/DNA ratio 3) is > 60. In the case of “CGGGAACTCCAGCAGGACCATTGGGC / CGGCAATGGTCCTGCTGGAGTTCGGC [CGG Y-form DNA]”, the binding signal (% unbound DNA at cGAS/DNA ratio 3) is > 60. Take “GCGGAACTCCAGCAGGACCATTGGCG / GCGCAATGGTCCTGCTGGAGTTCGCG [GCG Y-form DNA]”: the binding signal (% unbound DNA at cGAS/DNA ratio 3) is > 60. For “GGCGAACTCCAGCAGGACCATTGCGG / GGCCAATGGTCCTGCTGGAGTTCCGG [GGC Y-form DNA]”, the binding signal (% unbound DNA at cGAS/DNA ratio 3) is > 60.
